Laboratory results taken from the supplement of paper PMC11732987, “Enantioselective OTUD7B fragment discovery through chemoproteomics screening and high-throughput optimisation” (Communications Chemistry, 2025).
This is one part of the list. The data scatter; read single values as rough.

biological target: T1, WASHC2A C259 (UniProt Q641Q2); assay: log2 mean competition ratio of IA-DTB cysteine labelling (DMSO/compound) (log2 ratio); higher = stronger cysteine engagement by compound; conditions: 50 µM; treatment time: 4 h; cell line lysate: HEK293T
T1 sequence (whole entry): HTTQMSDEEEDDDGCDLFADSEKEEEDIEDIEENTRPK
Description: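 IA-DTB competitive cysteine chemoproteomics in HEK293T RIPA lysate. Lysates were treated with compound 29 or 30 at 50 or 200 µM for 4 h, then IA-DTB (500 µM, 1 h), trypsin-digested, NeutrAvidin-enriched and analysed by diaPASEF. Competition ratio = intensity DMSO / intensity compound (n=4 treated, n=64 DMSO); binding: mean log2 CR ≥ 1 and p ≤ 0.05 plus QC filters. Target is the cysteine site.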

Compound	log2 mean competition ratio
O=C(CCl)N[C@H]1CCCc2ccccc21	0.0396
O=C(CCl)N[C@@H]1CCCc2ccccc21	-0.362

same assay, conditions: 200 µM; treatment time: 4 h; cell line lysate: HEK293T

Compound	log2 mean competition ratio
O=C(CCl)N[C@H]1CCCc2ccccc21	-0.352
O=C(CCl)N[C@@H]1CCCc2ccccc21	0.0155
